# Data published in the supplement of paper PMC5407854, “Inhibitor of ppGalNAc-T3-mediated O-glycosylation blocks cancer cell invasiveness and lowers FGF23 levels” (eLife, 2017).
# Some of the results follow. Most values lie at the level of the controls, where differences are scatter.
# How the values were obtained:
# [1] = system: ppGalNAc-T3 sensor; test: T3 sensor activation Q score (MG/GFP ratio z-score vs DMSO controls) (SD units); higher = more sensor activation (inhibition of ppGalNAc-T3 glycosylation); conditions: HEK293 sensor cells; 10 µM; 6 h
# Procedure: (§1)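 Cells were treated with compound at 10 uM for 6 h, then MG/GFP ratio was read by flow cytometry (10,000 cells per well, duplicate wells). Q = (R - R_neg)/SD_neg relative to DMSO vehicle controls; the signal rises when the glycosyltransferase is inhibited.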
# [2] = system: ppGalNAc-T2 sensor; test: T2 sensor activation Q score (MG/GFP ratio z-score vs DMSO controls) (SD units); higher = more sensor activation (inhibition of ppGalNAc-T2 glycosylation); conditions: HEK293 sensor cells; 10 µM; 6 h
# Procedure: as §1
Structure (SMILES),T3 sensor activation Q score [1],T2 sensor activation Q score [2]
CC(C)NCC(O)COc1ccc(C(C)(C)C)cc1 (stereo not given),-0.335,-0.005
COc1cc(C)c(CN2CCN(Cc3ccc4c(c3)OCO4)CC2)cc1C,0.125,1.08
CN(CCC(N)=O)Cc1ccccc1,-0.24,0.275
Fc1ccc(CN2CCN(c3ccccn3)CC2)cc1,0.785,0.285
Cc1cccc(C(=O)Nc2ccc(C(C)C)cc2)c1,0.51,0.205
O=C(CC1CCCCC1)Nc1ccccc1,-0.26,-0.375
CCOc1ccc(CN2CCSCC2)cc1,0.71,0.48
Cc1cc(C)c2ccc(NN)nc2c1O,1.2,0.005
CCN1CCN(CC(O)COCC2COc3ccccc3O2)CC1 (stereo not given),-0.695,-0.545
Cn1c(/C=C/c2ccccc2)cc[n+]1C,-0.22,-0.2
CC(=O)c1ccc(N2CCN(Cc3ccc(N(C)C)cc3)CC2)cc1,-0.125,0.94
CCCC(O)=C1C(=O)CC(C)(C)CC1=NC(CC)CO (stereo not given),-0.535,-0.195
Cc1cc(OCC(N)=O)ccc1Cl,0.395,-0.165
O=C(Nc1ccccc1C(=O)O)c1ccccc1,-1.27,-1.32
Cc1cc(Cl)ccc1NCC(=O)NN,-0.42,0.875
CCN(CC)CCN(C)Cc1ccccc1F,0.315,0.305
O=C(Cc1ccc(F)cc1F)Nc1ccccc1,0.465,-0.65
CNC(=O)C(=O)Nc1c(C)cccc1C,0.455,-1.01
Cc1nc2ccc(C(=O)O)cc2[nH]1,-0.14,0.345
COc1ccccc1C1NC(C(=O)O)Cc2c1[nH]c1ccccc21 (stereo not given),-0.65,-1.59
O=C(Nc1ccccc1)NC1CCCCCCC1,-1.26,-0.37
O=C(NCCc1ccccc1)c1cccc(F)c1,-0.135,-1.67
CCC1(CC)C(=O)NC(=O)N=C1N,2.45,1.57
Cc1cc(C)n(-c2nncn2N)n1,-0.71,0.695
C=CCn1ncc(OC)c(Cl)c1=O,-0.14,0.66
Cc1nc2c(=O)[nH]c3ccccc3c2o1,0.53,0.295
O=C(Nc1ccc(F)cc1)Nc1ccc(Cl)cc1,-0.84,-1.48
O=[N+]([O-])c1cccnc1N1CCOCC1,0.375,-0.795

# Of the compounds above, 11 contain a carbonyl joined to an NH by a bond outside any ring:
Structure (SMILES),T3 sensor activation Q score [1],T2 sensor activation Q score [2]
CN(CCC(N)=O)Cc1ccccc1,-0.24,0.275
Cc1cccc(C(=O)Nc2ccc(C(C)C)cc2)c1,0.51,0.205
O=C(CC1CCCCC1)Nc1ccccc1,-0.26,-0.375
Cc1cc(OCC(N)=O)ccc1Cl,0.395,-0.165
O=C(Nc1ccccc1C(=O)O)c1ccccc1,-1.27,-1.32
Cc1cc(Cl)ccc1NCC(=O)NN,-0.42,0.875
O=C(Cc1ccc(F)cc1F)Nc1ccccc1,0.465,-0.65
CNC(=O)C(=O)Nc1c(C)cccc1C,0.455,-1.01
O=C(Nc1ccccc1)NC1CCCCCCC1,-1.26,-0.37
O=C(NCCc1ccccc1)c1cccc(F)c1,-0.135,-1.67
O=C(Nc1ccc(F)cc1)Nc1ccc(Cl)cc1,-0.84,-1.48

# Whole records, quoted from the list:
# O=C(Nc1ccccc1C(=O)O)c1ccccc1 is listed with T3 sensor activation Q score [1]: -1.27; T2 sensor activation Q score [2]: -1.32
# CCN1CCN(CC(O)COCC2COc3ccccc3O2)CC1 (stereo not given) is listed with T3 sensor activation Q score [1]: -0.695; T2 sensor activation Q score [2]: -0.545

# Next results

Structure (SMILES),T3 sensor activation Q score [1],T2 sensor activation Q score [2]
CN1CCCN(Cc2cccc(Oc3ccccc3)c2)CC1,-0.11,1.01
Cn1c(=O)[nH]c2nc(-c3ccccc3)[nH]c2c1=O,-0.1,0.11
CCN(CC)S(=O)(=O)c1ccc(Cl)c(C(=O)O)c1,-0.81,-0.835
O=C(O)c1ccccc1C(=O)c1ccc(Cl)c(Cl)c1,-0.48,-0.675
CC1(C)Cc2ccccc2-c2nc3n(c(=O)c21)CCS3,-0.33,-0.36
CN(C(=O)c1cccs1)c1ccccc1,0.28,-0.03
COc1ccc(C2C(C(C)=O)=C(O)C(=O)N2CCCO)cc1 (stereo not given),-0.61,0.245
Cc1cccc(NS(=O)(=O)c2ccc(Cl)cc2)n1,-0.345,-0.91
CC(NC(=O)c1ccc(Br)o1)c1ccccc1 (stereo not given),0.32,0.175
O=[N+]([O-])c1ccc(CNc2ccc(F)cc2)s1,0.37,0.2
CCN(CC)c1ccc(Nc2nc(-c3ccccn3)cs2)cc1,-0.325,-0.1
O=C(c1sc2cc([N+](=O)[O-])ccc2c1Cl)N1CCOCC1,0.4,-0.185
CC(O)C#CCN(Cc1ccccc1)C(C)C (stereo not given),-0.12,-0.99
CCc1nnc(NC(=O)C2CCCCC2)s1,-0.31,-0.015
Nc1nc(N)nc(-c2ccccc2)n1,0.45,-0.425
Cc1cccc(C(=O)NCc2ccncc2)c1,0.655,-0.73
Cc1ccc(Nc2cc(-n3cccn3)ncn2)cc1,-0.265,-0.75
CC1=CC(C)(C)N(C(=O)Cc2ccccc2)c2ccccc21,-0.42,-1.21
c1cc(-c2nnc(-c3ccncc3)o2)ccn1,0.365,-0.72
O=C(Nc1ccc(I)cc1)c1ccco1,0.285,0.02
CC(=O)Nc1ccc(C(=O)NC(C)CCc2ccccc2)cc1 (stereo not given),0.11,0
Cc1ccc(NC(=O)c2ccc(C(C)(C)C)cc2)cc1,-0.18,1.08
COc1ccc(OCc2nc3ccccc3[nH]2)cc1,-0.885,-1.83
CC(C)(C)c1cc(O)c(O)c(Br)c1,-1.16,-0.165
COc1cccc(OC)c1C(=O)N1CCCCC1,-0.33,-0.91
O=C(Nc1cc(NC(=O)c2ccccc2)cc(-c2nc3ccccc3o2)c1)c1ccccc1,-0.095,-0.28
C(=C\c1ccccc1)/CN1CCN(c2ncccn2)CC1,0.71,0.29
